Primary screen of a compound library

Amino acid sequences for entries named in this document (tags omitted).
UniProt P9WPC5, whole entry: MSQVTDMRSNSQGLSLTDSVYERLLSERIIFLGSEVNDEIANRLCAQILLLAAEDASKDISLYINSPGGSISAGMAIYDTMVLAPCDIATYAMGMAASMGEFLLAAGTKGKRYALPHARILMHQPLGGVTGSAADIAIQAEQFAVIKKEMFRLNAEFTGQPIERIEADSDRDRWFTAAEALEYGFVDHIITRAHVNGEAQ
UniProt P9WPC3, whole entry partner: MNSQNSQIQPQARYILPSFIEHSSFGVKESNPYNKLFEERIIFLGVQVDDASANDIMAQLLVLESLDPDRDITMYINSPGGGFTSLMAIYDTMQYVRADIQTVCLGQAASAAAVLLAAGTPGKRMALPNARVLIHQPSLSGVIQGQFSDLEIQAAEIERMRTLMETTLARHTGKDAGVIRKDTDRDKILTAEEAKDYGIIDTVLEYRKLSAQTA

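ClpP1P2, Mycobacterium tuberculosis (UniProt P9WPC5 and UniProt P9WPC3). Protease assay of ClpP1P2, read by the AMC dye that it sets free. Concentration: 50 µM. Direction is inferred from only a few compounds that gave an IC50; most scored high, so higher reads as stronger inhibition. Most other retested compounds had strongly negative values. Size under these conditions: about 69,000 compounds, about 10 of them at 50% or above in at least one test.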

Each number is a percent effect as filed. The controls that fix the scale are not given in the record; negative values are as filed. This is an unselected part of the compounds tested.

Result for CCOCCC(=O)Nc1cccc(Oc2ccccn2)c1 was 1.746%.
Result for CCc1csc(CNCC(=O)Nc2ccc(Cl)c(C)c2)n1 was 2.994%.
Result for Cc1cccc(C2CCCN2Cc2nc(N)nc(N(C)C)n2)c1C (stereo not drawn) was -5.668%.
Result for NC(=O)c1cccc(CC2CCN(C(=O)CCc3cccc(F)c3)C2)c1 (stereo not drawn) was -17.25%.
Result for c1ccc(Cc2nc(CNC3CCOC4(CCOCC4)C3)no2)cc1 (stereo not drawn) was -7.958%.
Result for CCC(CC)(CNC(C)=O)NC(C)c1ccccc1 (stereo not drawn) was -9.655%.
Result for COc1cccc([C@@H]2CCN(Cc3cn(C)c4ccccc34)C[C@H]2O)c1 was -2.233%.
Result for O=C(NCc1cc(-c2ccccc2)no1)NCC1CCCO1 (stereo not drawn) was 10.06%.
Result for Cn1ncc2c(N3CCN(C(=O)c4ccsc4)CC3)ncnc21 was 3.507%.
Result for CC(C)c1nnc(CNCC2CCCN2c2cccnn2)o1 (stereo not drawn) was -13.12%.
Result for CC(C)c1nccn1C1CCCN(C(=O)c2cccc3[nH]ncc23)C1 (stereo not drawn) was -5.537%.
Result for CSCc1cccc(S(=O)(=O)NCCCN2CCOCC2)c1 was -3.29%.
Result for CC(C)[C@@H]1CN(Cc2ccsc2)C[C@H]1NS(=O)(=O)N(C)C was 4.134%.
Result for O=C(c1ccc(=O)[nH]n1)N1CCCC1CCc1ccccc1 (stereo not drawn) was 2.036%.
Result for CC(C)(CNC(=O)c1ccco1)NC(=O)OC(C)(C)C was -7.162%.
Result for Cc1cc2cc(C(=O)N[C@@H]3CC[C@@H](N4CCCC4)[C@@H]3O)ccc2o1 was 4.245%.
Result for c1ccc2sc(N3CCCN(c4ncnc5c4CCNC5)CC3)nc2c1 was 1.541%.
Result for CC(=O)NCCNC(=O)C(c1ccccc1C)N(C)C (stereo not drawn) was 19.44%.
Result for Cc1n[nH]c(C)c1CCc1nc(C2CC2)n[nH]1 was -2.194%.
Result for CCc1cnc2c(c1Nc1ccccc1OC)c(=O)n(C)c(=O)n2C was 9.613%.
Result for O=C(Cc1ccccc1C(F)(F)F)N1CCC2(CC1)[C@H](O)C[C@@H]2O was -7.324%.
Result for CN(C)C(=O)CN1CCCCC1c1nc(N)ncc1-c1ccc(Cl)cc1 (stereo not drawn) was 5.378%.
Result for Cc1ccc(F)cc1S(=O)(=O)N(C)CC(N)=O was 1.844%.
Result for Cc1nc(CNC(C)c2ccc(OCC(=O)NC3CC3)cc2)cs1 (stereo not drawn) was 11.12%.
Result for CCCn1ncc(C(=O)N2CCCC(OCc3ccccn3)C2)c1C (stereo not drawn) was -5.242%.
Result for O=C(c1cccc(-n2cnnc2)c1)N1C[C@@H](O)[C@H](N2CCOCC2)C1 was -5.568%.
Result for Cc1ncncc1C(=O)N1CCOC(C)(C(=O)NC2CCCC2)C1 (stereo not drawn) was 7.438%.
Result for Cc1n[nH]c(=O)c2c(NC(=O)CN3CCCC(C(F)(F)F)C3)oc(C)c12 (stereo not drawn) was 32%.
Result for CCOc1cc(CNCc2cnc(C)cn2)c(Cl)cc1OC(C)C was -11.07%.
Result for Cc1ccsc1C(CNC(=O)c1cc(=O)[nH]c(=O)[nH]1)N(C)C (stereo not drawn) was 9.435%.
Result for CCOC(=O)CCNC(=O)c1nc(OCC)ccc1Cl was -20.75%.
Result for CC(C)OCCN1CCN(c2ccc(Cl)cn2)CC1 was -11.1%.
Result for O=C(NC1CC1)[C@H]1C[C@H]2OCC[C@H]2N(Cc2ccco2)C1 was -18.73%.
Result for CN(Cc1cc(-c2ccccc2)no1)C(=O)CNS(C)(=O)=O was 0.7924%.
Result for COc1ncccc1CNCc1c(C(C)C)nn(C)c1OC was -3.394%.
Result for COc1ccc2cc(C3CN(C(=O)CCNC(C)=O)CCO3)ccc2c1 (stereo not drawn) was -6.033%.
Result for O=C(c1ccccc1)N1CCCn2c(CN3CCCCC3)nnc2C1 was -11.6%.
Result for Cn1cc(CNC(=O)C2CCCN(Cc3cccc(F)c3)C2)cn1 (stereo not drawn) was -7.291%.
Result for N#CCCN(CC(F)(F)F)C(=O)c1cc(-n2cccn2)ccn1 was -8.064%.
Result for Cc1cc(C)nc(N2CCC(c3c(C(N)=O)sc4ccccc34)C2)n1 (stereo not drawn) was -6.996%.
Result for Cc1ccc(S(=O)(=O)N(CCO)C2CC2)cc1N(C)C was 10.5%.
Result for O=C(NCc1cc(=O)n2c(n1)CN(CC1CC1)CCC2)c1ccsc1 was 6.02%.
Result for CN(CC(=O)NS(=O)(=O)c1ccsc1)Cc1ccccc1 was -4.514%.
Result for Cc1cccc(C(C(=O)N2CC(c3ccccn3)C2)N(C)C)c1 (stereo not drawn) was -1.454%.
Result for O=C1CCCN1CCc1noc(-c2ccsc2)n1 was 0.5349%.
Result for COc1ccc(CN(C)C(=O)NCc2c(C)cc(C)nc2OC)cc1 was -19.16%.
Result for N#CCCN(Cc1ccccn1)Cn1cc(Cl)cn1 was -19.52%.
Result for CC(C)NC(=O)N1CCN2C(=O)N(Cc3ccc(F)cc3)C[C@H]2C1 was -13.21%.
Result for O=C(CCCn1cncn1)NC1(c2ccccc2)CCC1 was -16.01%.
Result for CCc1nc(C)sc1CN1CC[C@@](O)(CCOC)[C@H](C)C1 was -10.6%.
Result for O=C(c1cscn1)N1CC[C@@H]2[C@@H]1CCN2C1CCOC1 (stereo partly drawn) was -3.188%.
Result for CCNC(=O)NC(=O)CN1CCCC1c1nc(C2CCCCC2)co1 (stereo not drawn) was 2.447%.
Result for Cc1nc(N2CCOCC2)nc(C)c1NS(=O)(=O)c1ccccc1 was -5.13%.
Result for O=C(NC1(c2nc(C3CC3)no2)CCCCC1)c1cccnc1O was -15.58%.
Result for COCCN(Cc1ccc(C)cc1)Cc1nccn1C was -7.141%.
Result for O=C(c1cscn1)N1CCC2(CCN(S(=O)(=O)c3ccccc3)C2)C1 (stereo not drawn) was 14.3%.
Result for CN(C)CCO[C@@H]1CC[C@H]2[C@H]1OCCN2C(=O)c1ccc(F)cc1 was -11.58%.
Result for Cc1nsc(N2CCN(C(=O)Nc3cccc(C#N)c3)CC2)n1 was -2.768%.
Result for COc1ccccc1C(=O)N1CCCC1c1nncn1CC(C)C (stereo not drawn) was 3.806%.
Result for CCn1nc(C)c2nc(C(C)C)nc(NCCCO)c21 was 2.435%.

Repeated from the top, 3 entries:

{"smiles": "CCOCCC(=O)Nc1cccc(Oc2ccccn2)c1", "Percent Effect": 1.746}
{"smiles": "CCc1csc(CNCC(=O)Nc2ccc(Cl)c(C)c2)n1", "Percent Effect": 2.994}
{"smiles": "Cc1cccc(C2CCCN2Cc2nc(N)nc(N(C)C)n2)c1C", "stereo": "stereo not drawn", "Percent Effect": -5.668}

The values are deposited in ChEMBL (CHEMBL3988442, “University of Dundee, Small-Polar-MMV Screening Library” (2021)).